According to patent US20090092614A1:
Results are given in words; binding and its absence hold for the method and conditions named. Some results given as binding are weak or reduced against the parent protein; the word gives no strength.

By UniProt entry, the sequences of proteins in these tests, tags left out. Where a name states a change or a piece, a line headed by the entry shows the natural chain unless it says otherwise.
UniProt P08069: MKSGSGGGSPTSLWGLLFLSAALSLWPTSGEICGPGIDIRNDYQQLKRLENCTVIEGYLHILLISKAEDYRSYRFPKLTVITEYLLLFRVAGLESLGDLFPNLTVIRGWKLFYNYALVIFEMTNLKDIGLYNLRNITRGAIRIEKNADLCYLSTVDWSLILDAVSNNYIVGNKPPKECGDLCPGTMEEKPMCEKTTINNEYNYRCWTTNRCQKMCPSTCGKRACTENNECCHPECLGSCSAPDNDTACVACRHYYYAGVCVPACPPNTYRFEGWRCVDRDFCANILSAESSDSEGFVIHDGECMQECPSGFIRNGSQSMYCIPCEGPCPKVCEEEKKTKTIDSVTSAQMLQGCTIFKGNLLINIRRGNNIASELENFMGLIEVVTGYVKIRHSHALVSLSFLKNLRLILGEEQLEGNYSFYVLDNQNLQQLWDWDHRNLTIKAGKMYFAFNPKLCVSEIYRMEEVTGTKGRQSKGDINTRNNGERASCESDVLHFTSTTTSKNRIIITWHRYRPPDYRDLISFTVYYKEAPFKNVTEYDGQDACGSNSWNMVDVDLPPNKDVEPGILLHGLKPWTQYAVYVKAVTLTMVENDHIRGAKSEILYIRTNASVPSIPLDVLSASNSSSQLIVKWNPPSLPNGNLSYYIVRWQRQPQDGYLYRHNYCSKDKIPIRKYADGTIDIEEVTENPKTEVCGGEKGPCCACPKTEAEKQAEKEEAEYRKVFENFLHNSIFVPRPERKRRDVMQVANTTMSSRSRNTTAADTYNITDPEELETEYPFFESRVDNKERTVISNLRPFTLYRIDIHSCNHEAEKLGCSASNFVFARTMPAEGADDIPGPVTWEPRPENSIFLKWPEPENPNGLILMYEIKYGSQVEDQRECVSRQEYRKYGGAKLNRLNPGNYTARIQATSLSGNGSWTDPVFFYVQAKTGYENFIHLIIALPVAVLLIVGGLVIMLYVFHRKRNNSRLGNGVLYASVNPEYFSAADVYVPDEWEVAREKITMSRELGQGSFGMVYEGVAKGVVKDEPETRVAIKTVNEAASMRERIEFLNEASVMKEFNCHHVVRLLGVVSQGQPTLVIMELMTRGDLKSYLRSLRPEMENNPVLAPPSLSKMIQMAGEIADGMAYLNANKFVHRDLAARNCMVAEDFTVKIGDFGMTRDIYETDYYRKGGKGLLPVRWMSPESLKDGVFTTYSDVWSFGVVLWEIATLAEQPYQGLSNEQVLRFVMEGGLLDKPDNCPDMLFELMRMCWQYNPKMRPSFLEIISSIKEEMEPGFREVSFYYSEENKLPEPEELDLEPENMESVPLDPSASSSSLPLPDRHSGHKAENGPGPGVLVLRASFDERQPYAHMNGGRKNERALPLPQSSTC

What was measured:
[1] = target: human IGF-1R(1-903)-Fc (human) (UniProt P08069); test: competition ELISA, 320 nM human IGF-2 His binding to biotinylated hIGF-1R-Fc, anti-His-HRP
[2] = target: human IGF-1R(1-903)-Fc (human) (UniProt P08069); test: solid-phase RIA, inhibition of 125I-IGF-2 binding to immobilized IGF-1R-Fc
[3] = target: human IGF-1R(1-903)-Fc (human) (UniProt P08069); test: ELISA
[4] = target: human IGF-1R (full length, on cells) (human) (UniProt P08069); test: flow cytometry
[5] = target: human IGF-1R(1-903)-Fc (human) (UniProt P08069); test: competition ELISA, 320 nM human IGF-1 His binding to biotinylated hIGF-1R-Fc, anti-His-HRP
[6] = target: human IGF-1R (full length, on cells) (human) (UniProt P08069); test: flow cytometry, IGF-1R/3T3 transfectants against 3T3 parent cells
[7] = target: human IGF-1R(1-903)-Fc (human) (UniProt P08069); test: ELISA on plate-coated soluble IGF-1R-Fc, goat anti-human kappa-HRP
[8] = target: human IGF-1R (full length, on cells) (human) (UniProt P08069); test: flow cytometry titration on MCF-7 cells
[9] = target: hIGF-1R-Fc mutant SD019 (human) (UniProt P08069); test: KD grade of mutant hIGF-1R-Fc; NE = KD within 2.5-fold of WT

Measured: binding

B1: M14-C03.G4.P.agly (antibody, human IgG4 S228P, kappa, V domains shown)
VH: EVQLLESGGGLVQPGGSLRLSCAASGFTFSKYMMSWVRQAPGKGLEWVSYISPSGGLTWYADSVKGRFTISRDNSKNTLYLQMNSLRAEDTAVYYCARDGARGYGMDVWGQGTTVTVSS
VL: DIQMTQSPATLSLSPGERATLSCRASQSVSSYLAWYQQKPGQAPRLLIYDASNRATGIPARFSGSGSGTDFTLTISSLEPEDFAVYYCQQRSNWPPEVTFGPGTKVDIKR
binds: all assays above

B2: P1E2 (chimeric antibody) (antibody, V domains shown)
VH: QVQLQQPGAELVKPGASVKLSCKASGYTFTSYWMHWVKQRPGQGLEWIGEINPTYGRSNYNEKFKSKATLTVDKSSSTAYMQLSSLTSEDSAVYYCARLVRLRYFDVWGAGTTVTVSS
VL: DIVMTQAAFSNPVTLGTSASISCRSSKSLLHSNGITYLYWYLQKPGQSPQLLIYQMSNLASGVPDRFSSSGSGTDFTLRISRVEAEDVGVYYCAQNLELPYTFGGGTKLEIK
binds: [1]
